Laboratory results: PubChem BioAssay AID504808 (Drosophila RNAi Screening Center, 2011)
Aim: 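Chromatin factors that keep E2F targets switched off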 (primary screen). System: Drosophila S2 cells. Reagent: long dsRNA against Drosophila genes. Read-out: 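Firefly luciferase driven by E2F sites, normalised to Renilla luciferase on the same minimal promoter, measured by plate reader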. Scale: E2F firefly: higher = more E2F reporter activity; Renilla normaliser: higher = more normaliser reporter signal. Active means: 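a knock-down counted as active when the firefly/Renilla E2F signal rose above 50%, a threshold chosen arbitrarily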.
The screen tested about 21,000 reagents; below is an unselected part of those that have a named target and a result. In the full data, 18 (0.084%) were called active. 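Raw counts without plate normalisation, one of two replicates; the ratio scores behind the calls were not deposited.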 A plus sign joins genes that one reagent is predicted to hit. The record does not give: the amount of reagent, the time to read-out.

CG17744 [SID104190078] — E2F firefly, rep 1: 88093; Renilla normaliser, rep 1: 3582; call: inactive
PolH [SID104191592] — E2F firefly, rep 1: 85773; Renilla normaliser, rep 1: 3315; call: inactive
stg [SID104196863] — E2F firefly, rep 1: 721; Renilla normaliser, rep 1: 720; call: inactive
CG31373 [SID104195844] — E2F firefly, rep 1: 1.33e5; Renilla normaliser, rep 1: 5989; call: inactive
CG14313 [SID104194584] — E2F firefly, rep 1: 1.42e5; Renilla normaliser, rep 1: 6187; call: inactive
Karl [SID104199675] — E2F firefly, rep 1: 8382; Renilla normaliser, rep 1: 816; call: inactive
TppII [SID104187357] — E2F firefly, rep 1: 2709; Renilla normaliser, rep 1: 177; call: inactive
Trf4-2 [SID104195029] — E2F firefly, rep 1: 1.14e5; Renilla normaliser, rep 1: 5904; call: inactive
Fen1 [SID104187207] — E2F firefly, rep 1: 1.43e5; Renilla normaliser, rep 1: 5169; call: inactive
ft [SID104180611] — E2F firefly, rep 1: 97248; Renilla normaliser, rep 1: 3182; call: inactive
CG30275 [SID104183955] — E2F firefly, rep 1: 1.09e5; Renilla normaliser, rep 1: 4234; call: inactive
Sec5 [SID104180506] — E2F firefly, rep 1: 68483; Renilla normaliser, rep 1: 4039; call: inactive
CG9331 [SID104182998] — E2F firefly, rep 1: 78668; Renilla normaliser, rep 1: 2884; call: inactive
Polr2C [SID104183207] — E2F firefly, rep 1: 60009; Renilla normaliser, rep 1: 3640; call: inactive
Jra [SID104187239] — E2F firefly, rep 1: 4300; Renilla normaliser, rep 1: 197; call: inactive
CG8492 [SID104190776] — E2F firefly, rep 1: 1.09e5; Renilla normaliser, rep 1: 2932; call: inactive
Jarid2 [SID104190164] — E2F firefly, rep 1: 79347; Renilla normaliser, rep 1: 3583; call: inactive
Alp1 [SID104191573] — E2F firefly, rep 1: 71753; Renilla normaliser, rep 1: 2845; call: inactive
CG4496 [SID104182545] — E2F firefly, rep 1: 1.52e5; Renilla normaliser, rep 1: 4732; call: inactive
Ubqn [SID104199373] — E2F firefly, rep 1: 1.64e5; Renilla normaliser, rep 1: 6101; call: inactive
CG31126 [SID104194415] — E2F firefly, rep 1: 1.08e5; Renilla normaliser, rep 1: 5904; call: inactive
DUBAI + Tmem18 [SID104185136] — E2F firefly, rep 1: 1.31e5; Renilla normaliser, rep 1: 5309; call: inactive
peng [SID104200375] — E2F firefly, rep 1: 1.36e5; Renilla normaliser, rep 1: 6987; call: inactive
yellow-d2 [SID104184383] — E2F firefly, rep 1: 1.01e5; Renilla normaliser, rep 1: 4668; call: inactive
Surf4 [SID104196667] — E2F firefly, rep 1: 1.02e5; Renilla normaliser, rep 1: 5050; call: inactive
Pldn [SID104189929] — E2F firefly, rep 1: 1.23e5; Renilla normaliser, rep 1: 6062; call: inactive
CG13928 [SID104188189] — E2F firefly, rep 1: 99341; Renilla normaliser, rep 1: 4250; call: inactive
CG34276 [SID104195603] — E2F firefly, rep 1: 1.14e5; Renilla normaliser, rep 1: 5998; call: inactive

Entries above whose gene name begins with P or p (4):
PolH [SID104191592] — E2F firefly, rep 1: 85773; Renilla normaliser, rep 1: 3315; call: inactive
Polr2C [SID104183207] — E2F firefly, rep 1: 60009; Renilla normaliser, rep 1: 3640; call: inactive
peng [SID104200375] — E2F firefly, rep 1: 1.36e5; Renilla normaliser, rep 1: 6987; call: inactive
Pldn [SID104189929] — E2F firefly, rep 1: 1.23e5; Renilla normaliser, rep 1: 6062; call: inactive
